Source: PubChem BioAssay AID1259308 (NCATS, 2017)
The whole screen tested about 59,000 reagents; shown is a random part of them. In the full data, about 1,510 (2.6%) were called active. 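Calls use total luciferase alone and ignore viability, so some active siRNAs may act by altering cell number.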 Entries without a mark were called inactive. The numbers tell different reagents against one gene apart.

- Assay: 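Genes whose loss raises luciferase production in HEK293 cells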 (primary screen)
- System: human HEK293 embryonic kidney cells stably expressing firefly luciferase (HEK-CMV-Luc2-Hygro)
- Reagent: single siRNA against human genes, 0.8 pmol siRNA per well
- Timing: 72 h
- Detection: 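Luciferase light (ONE-Glo) measured on one replicate plate set and viability (CellTiter-Glo) on the other, scaled to a negative control siRNA, with robust z-scores and luciferase per cell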
- Scale: total luciferase, z-score and total luciferase, % of control: higher = more reporter protein produced; luciferase per cell, z-score: higher = more reporter output per viable cell; viable cells, % of control: higher = more viable cells
- Call rule: 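An siRNA counts as active if its total luciferase robust z-score exceeds 3; genes with two or more such siRNAs out of three were retested with fresh siRNAs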
- Calls: active = raised luciferase; inactive = no rise

| gene symbol | siRNA no. | total luciferase, z-score | total luciferase, % of control | luciferase per cell, z-score | viable cells, % of control |
| --- | --- | --- | --- | --- | --- |
| FMNL1 (formin like 1) | 1 | -0.932 | 63.3 | -0.992 | 91.9 |
| FMNL1 (formin like 1) | 2 | 0.043 | 82.7 | 0.979 | 71.5 |
| FMNL1 (formin like 1) | 3 | -1.12 | 59.7 | -2 | 113 |
| POLI (DNA polymerase iota) | 1 | -1.14 | 59.1 | 0.188 | 62.9 |
| POLI (DNA polymerase iota) | 2 | -0.807 | 65.8 | -1.25 | 102 |
| POLI (DNA polymerase iota) | 3 | 0.239 | 86.6 | -0.462 | 109 |
| TUBGCP4 (tubulin gamma complex component 4) | 1 | -0.0102 | 81.7 | 0.213 | 86.3 |
| TUBGCP4 (tubulin gamma complex component 4) | 2 | 1.22 | 106 | 1.01 | 90.9 |
| TUBGCP4 (tubulin gamma complex component 4) | 3 | 0.367 | 89.2 | 0.504 | 87.3 |
| PCNX3 (pecanex 3) | 1 | 2.54 | 132 | 1.53 | 99 |
| PCNX3 (pecanex 3) | 2 | -0.904 | 63.9 | -0.711 | 86.1 |
| PCNX3 (pecanex 3) | 3 | 0.367 | 89.2 | -0.653 | 118 |
| MN1 (MN1 proto-oncogene, transcriptional regulator) | 1 | 0.616 | 94.1 | 0.914 | 82.7 |
| MN1 (MN1 proto-oncogene, transcriptional regulator) | 2 | -0.235 | 77.2 | -0.221 | 91.4 |
| MN1 (MN1 proto-oncogene, transcriptional regulator) | 3 | 0.981 | 101 | 0.939 | 88.5 |
| CCSER2 (coiled-coil serine rich protein 2) | 1 | -0.972 | 62.6 | 0.565 | 60.3 |
| CCSER2 (coiled-coil serine rich protein 2) | 2 | -2.67 | 28.8 | -2.79 | 67 |
| CCSER2 (coiled-coil serine rich protein 2) | 3 | -0.732 | 67.3 | 0.549 | 65.1 |
| RSPH3 (radial spoke head 3) | 1 | 0.147 | 84.8 | 0.368 | 86 |
| RSPH3 (radial spoke head 3) | 2 | 0.631 | 94.4 | -0.188 | 111 |
| RSPH3 (radial spoke head 3) | 3 | 0.206 | 86 | 0.0487 | 94.9 |
| COMMD10 (COMM domain containing 10) | 1 | -1.4 | 54 | -1.75 | 95.6 |
| COMMD10 (COMM domain containing 10) | 2 | 0.396 | 89.8 | 0.258 | 93.7 |
| COMMD10 (COMM domain containing 10) | 3 | -1.1 | 59.9 | -0.715 | 80.8 |
| LDB2 (LIM domain binding 2) | 1 | 0.152 | 84.9 | -0.223 | 101 |
| LDB2 (LIM domain binding 2) | 2 | -0.801 | 65.9 | -0.572 | 85.7 |
| LDB2 (LIM domain binding 2) | 3 | 0.363 | 89.1 | 0.874 | 79.1 |
| EEF1B2P6 | 1 | 2.23 | 126 | 1.64 | 91.6 |
| EEF1B2P6 | 2 | -0.421 | 73.5 | -0.404 | 91.4 |
| EEF1B2P6 | 3 | -0.456 | 72.8 | -0.271 | 87.4 |
| SLC25A27 | 1 | -1.13 | 59.5 | -1.19 | 90.9 |
| SLC25A27 | 2 | 1.06 | 103 | 0.597 | 98.3 |
| SLC25A27 | 3 | -0.215 | 77.6 | 0.299 | 80.2 |
| CCNJ (cyclin J) | 1 | 0.301 | 87.9 | -0.216 | 104 |
| CCNJ (cyclin J) | 2 | 0.716 | 96.1 | 0.706 | 89.2 |
| CCNJ (cyclin J) | 3 | -0.358 | 74.8 | -0.29 | 90.2 |
| CCDC167 (coiled-coil domain containing 167) | 1 | -1.77 | 46.6 | -2.01 | 88.4 |
| CCDC167 (coiled-coil domain containing 167) | 2 | 3.91 (active) | 160 | 2.5 | 92.4 |
| CCDC167 (coiled-coil domain containing 167) | 3 | 0.29 | 87.7 | 0.885 | 77.6 |
| RAVER1 (ribonucleoprotein, PTB binding 1) | 1 | -0.609 | 69.8 | -0.35 | 85.5 |
| RAVER1 (ribonucleoprotein, PTB binding 1) | 2 | -2.48 | 32.5 | -1.82 | 58.6 |
| RAVER1 (ribonucleoprotein, PTB binding 1) | 3 | -1.7 | 48.1 | -2.46 | 103 |
| OPN1MW (opsin 1, medium wave sensitive) | 1 | 0.894 | 99.7 | 0.114 | 108 |
| OPN1MW (opsin 1, medium wave sensitive) | 2 | -1.42 | 53.6 | -1.28 | 84 |
| OPN1MW (opsin 1, medium wave sensitive) | 3 | -1.03 | 61.5 | -1.67 | 107 |
| DDHD1 (DDHD domain containing 1) | 1 | -1.32 | 55.6 | -1.51 | 92.5 |
| DDHD1 (DDHD domain containing 1) | 2 | -2.17 | 38.8 | -2.05 | 74.3 |
| DDHD1 (DDHD domain containing 1) | 3 | -0.523 | 71.5 | -0.64 | 94.5 |
| F2RL2 (coagulation factor II thrombin receptor like 2) | 1 | -0.291 | 76.1 | 0.775 | 69.4 |
| F2RL2 (coagulation factor II thrombin receptor like 2) | 2 | 0.191 | 85.7 | -0.587 | 112 |
| F2RL2 (coagulation factor II thrombin receptor like 2) | 3 | -0.592 | 70.1 | -1.1 | 105 |
| PARGP1 (PARG pseudogene 1) | 1 | 2.57 | 133 | 1.99 | 87.9 |
| PARGP1 (PARG pseudogene 1) | 2 | -0.718 | 67.6 | -0.79 | 93 |
| PARGP1 (PARG pseudogene 1) | 3 | -0.114 | 79.6 | -0.279 | 95.8 |
| NAGS (N-acetylglutamate synthase) | 1 | 2.35 | 129 | 1.6 | 94.3 |
| NAGS (N-acetylglutamate synthase) | 2 | 1.08 | 103 | 0.809 | 93.3 |
| NAGS (N-acetylglutamate synthase) | 3 | 0.735 | 96.5 | -0.0689 | 110 |
